Test results published in the supplement of paper PMC11732987, “Enantioselective OTUD7B fragment discovery through chemoproteomics screening and high-throughput optimisation” (Communications Chemistry, 2025).
Some of the results follow. The data scatter; read single values as rough.

Amino acid sequences for entries named in this document (tags omitted). A change or cut given only in a name is not applied to a line headed by its entry. Residues count along the entry.
UniProt Q8IZE3: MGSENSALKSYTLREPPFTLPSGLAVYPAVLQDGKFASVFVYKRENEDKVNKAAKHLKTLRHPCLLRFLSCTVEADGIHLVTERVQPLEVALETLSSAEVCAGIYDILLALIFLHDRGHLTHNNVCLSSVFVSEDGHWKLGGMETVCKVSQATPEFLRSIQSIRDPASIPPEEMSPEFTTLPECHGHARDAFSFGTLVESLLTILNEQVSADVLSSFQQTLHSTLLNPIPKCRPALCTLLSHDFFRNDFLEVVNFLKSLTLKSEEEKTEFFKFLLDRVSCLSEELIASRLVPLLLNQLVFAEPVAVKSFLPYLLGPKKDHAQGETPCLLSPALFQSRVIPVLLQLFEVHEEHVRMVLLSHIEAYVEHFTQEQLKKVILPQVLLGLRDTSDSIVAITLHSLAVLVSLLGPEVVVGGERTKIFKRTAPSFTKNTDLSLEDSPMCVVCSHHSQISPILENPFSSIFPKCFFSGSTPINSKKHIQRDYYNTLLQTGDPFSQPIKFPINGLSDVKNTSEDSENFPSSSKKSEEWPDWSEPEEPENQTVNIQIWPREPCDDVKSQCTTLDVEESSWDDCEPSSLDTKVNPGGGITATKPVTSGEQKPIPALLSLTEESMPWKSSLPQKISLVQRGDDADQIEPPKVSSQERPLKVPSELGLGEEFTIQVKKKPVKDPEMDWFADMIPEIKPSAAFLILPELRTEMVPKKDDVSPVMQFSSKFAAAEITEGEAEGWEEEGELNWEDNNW
UniProt Q16181: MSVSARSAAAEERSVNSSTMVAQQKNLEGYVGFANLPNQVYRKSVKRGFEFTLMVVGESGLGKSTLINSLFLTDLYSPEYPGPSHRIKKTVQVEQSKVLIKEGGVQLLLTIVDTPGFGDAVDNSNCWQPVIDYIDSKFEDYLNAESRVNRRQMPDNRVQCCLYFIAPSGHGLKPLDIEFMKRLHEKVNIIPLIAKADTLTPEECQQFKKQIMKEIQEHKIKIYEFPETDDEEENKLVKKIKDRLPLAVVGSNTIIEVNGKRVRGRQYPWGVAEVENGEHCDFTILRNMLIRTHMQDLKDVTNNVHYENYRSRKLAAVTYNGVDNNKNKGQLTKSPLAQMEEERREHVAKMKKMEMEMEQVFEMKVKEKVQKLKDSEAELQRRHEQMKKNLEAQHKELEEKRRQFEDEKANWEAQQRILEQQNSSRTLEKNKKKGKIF
UniProt Q9NPR2: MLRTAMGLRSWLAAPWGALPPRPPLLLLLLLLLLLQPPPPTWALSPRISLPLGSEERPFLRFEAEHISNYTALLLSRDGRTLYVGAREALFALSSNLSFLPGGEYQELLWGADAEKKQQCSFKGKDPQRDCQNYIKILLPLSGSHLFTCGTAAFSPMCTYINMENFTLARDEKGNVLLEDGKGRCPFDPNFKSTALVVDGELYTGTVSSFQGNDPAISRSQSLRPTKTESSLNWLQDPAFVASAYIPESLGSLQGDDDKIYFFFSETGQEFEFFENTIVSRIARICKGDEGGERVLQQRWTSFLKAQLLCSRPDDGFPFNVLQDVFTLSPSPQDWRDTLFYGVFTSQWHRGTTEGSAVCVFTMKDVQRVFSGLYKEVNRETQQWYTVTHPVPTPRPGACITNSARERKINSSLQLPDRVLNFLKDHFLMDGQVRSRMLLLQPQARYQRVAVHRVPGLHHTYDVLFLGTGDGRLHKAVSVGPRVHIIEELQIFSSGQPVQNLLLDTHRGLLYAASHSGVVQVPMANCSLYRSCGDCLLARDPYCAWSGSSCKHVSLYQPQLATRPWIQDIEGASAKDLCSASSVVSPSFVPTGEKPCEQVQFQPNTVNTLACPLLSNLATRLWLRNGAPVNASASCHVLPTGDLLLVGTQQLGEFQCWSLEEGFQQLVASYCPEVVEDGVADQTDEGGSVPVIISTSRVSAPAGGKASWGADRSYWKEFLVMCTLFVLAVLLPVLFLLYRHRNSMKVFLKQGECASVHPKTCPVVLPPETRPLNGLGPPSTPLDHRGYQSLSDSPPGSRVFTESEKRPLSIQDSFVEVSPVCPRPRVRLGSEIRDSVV
UniProt Q9NP50: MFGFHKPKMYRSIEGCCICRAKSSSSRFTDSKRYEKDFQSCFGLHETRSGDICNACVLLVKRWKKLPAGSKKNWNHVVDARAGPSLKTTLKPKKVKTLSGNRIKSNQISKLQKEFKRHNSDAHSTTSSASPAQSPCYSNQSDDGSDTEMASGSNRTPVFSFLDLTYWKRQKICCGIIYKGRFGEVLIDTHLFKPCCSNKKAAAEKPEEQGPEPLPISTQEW
UniProt Q562F6: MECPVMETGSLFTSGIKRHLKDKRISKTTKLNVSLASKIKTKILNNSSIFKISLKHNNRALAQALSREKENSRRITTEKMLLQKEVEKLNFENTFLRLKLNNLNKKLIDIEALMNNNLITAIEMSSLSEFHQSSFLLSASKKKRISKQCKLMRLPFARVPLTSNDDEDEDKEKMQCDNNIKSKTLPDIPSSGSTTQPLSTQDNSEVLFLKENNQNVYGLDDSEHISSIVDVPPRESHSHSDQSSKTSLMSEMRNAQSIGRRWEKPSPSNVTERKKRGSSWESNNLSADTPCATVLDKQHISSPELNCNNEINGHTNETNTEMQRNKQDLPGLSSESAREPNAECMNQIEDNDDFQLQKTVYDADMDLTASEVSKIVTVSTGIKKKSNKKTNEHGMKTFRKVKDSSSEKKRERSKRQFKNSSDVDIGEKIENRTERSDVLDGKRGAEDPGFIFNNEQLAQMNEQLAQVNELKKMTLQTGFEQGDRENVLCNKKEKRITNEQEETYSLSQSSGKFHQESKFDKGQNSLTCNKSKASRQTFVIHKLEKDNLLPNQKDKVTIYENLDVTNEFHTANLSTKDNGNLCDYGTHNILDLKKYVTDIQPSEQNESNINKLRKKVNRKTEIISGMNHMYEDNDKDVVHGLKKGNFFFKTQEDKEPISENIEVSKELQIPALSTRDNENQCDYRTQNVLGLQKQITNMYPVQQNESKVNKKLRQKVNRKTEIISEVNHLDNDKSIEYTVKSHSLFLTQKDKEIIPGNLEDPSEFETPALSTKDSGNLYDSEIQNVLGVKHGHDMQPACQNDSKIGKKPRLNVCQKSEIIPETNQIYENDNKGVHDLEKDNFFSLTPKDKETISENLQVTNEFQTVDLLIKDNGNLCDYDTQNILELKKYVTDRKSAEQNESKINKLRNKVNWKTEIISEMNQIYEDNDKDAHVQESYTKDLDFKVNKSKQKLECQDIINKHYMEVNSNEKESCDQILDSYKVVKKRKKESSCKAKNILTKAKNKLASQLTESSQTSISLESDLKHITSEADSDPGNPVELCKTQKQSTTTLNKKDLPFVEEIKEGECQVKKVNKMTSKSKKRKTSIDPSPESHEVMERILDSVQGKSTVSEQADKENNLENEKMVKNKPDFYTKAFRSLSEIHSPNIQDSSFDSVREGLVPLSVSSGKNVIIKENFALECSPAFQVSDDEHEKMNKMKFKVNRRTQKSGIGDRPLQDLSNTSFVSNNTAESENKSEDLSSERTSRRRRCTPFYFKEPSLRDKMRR
UniProt Q96FV2: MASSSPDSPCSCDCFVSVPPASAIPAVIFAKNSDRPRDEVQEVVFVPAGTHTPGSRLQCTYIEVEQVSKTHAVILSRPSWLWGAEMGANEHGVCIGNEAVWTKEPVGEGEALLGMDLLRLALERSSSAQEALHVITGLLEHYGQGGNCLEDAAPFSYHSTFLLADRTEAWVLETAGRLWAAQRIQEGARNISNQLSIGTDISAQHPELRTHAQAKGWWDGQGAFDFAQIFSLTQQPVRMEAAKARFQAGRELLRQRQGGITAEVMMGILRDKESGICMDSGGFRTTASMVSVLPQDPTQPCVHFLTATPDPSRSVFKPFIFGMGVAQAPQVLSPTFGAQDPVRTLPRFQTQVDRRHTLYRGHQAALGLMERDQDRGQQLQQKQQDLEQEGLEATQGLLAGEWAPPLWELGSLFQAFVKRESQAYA
UniProt Q93073, 880-900: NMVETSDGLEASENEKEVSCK
UniProt P55735: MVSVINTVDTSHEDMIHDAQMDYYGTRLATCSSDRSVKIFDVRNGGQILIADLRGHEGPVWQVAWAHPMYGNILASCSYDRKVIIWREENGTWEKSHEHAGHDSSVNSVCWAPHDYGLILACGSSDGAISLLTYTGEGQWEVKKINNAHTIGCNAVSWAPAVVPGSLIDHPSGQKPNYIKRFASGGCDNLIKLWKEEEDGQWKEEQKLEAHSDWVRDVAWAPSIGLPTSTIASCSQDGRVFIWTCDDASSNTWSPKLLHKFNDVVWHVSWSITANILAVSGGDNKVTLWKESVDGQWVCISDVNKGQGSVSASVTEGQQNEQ
UniProt Q9NVA2: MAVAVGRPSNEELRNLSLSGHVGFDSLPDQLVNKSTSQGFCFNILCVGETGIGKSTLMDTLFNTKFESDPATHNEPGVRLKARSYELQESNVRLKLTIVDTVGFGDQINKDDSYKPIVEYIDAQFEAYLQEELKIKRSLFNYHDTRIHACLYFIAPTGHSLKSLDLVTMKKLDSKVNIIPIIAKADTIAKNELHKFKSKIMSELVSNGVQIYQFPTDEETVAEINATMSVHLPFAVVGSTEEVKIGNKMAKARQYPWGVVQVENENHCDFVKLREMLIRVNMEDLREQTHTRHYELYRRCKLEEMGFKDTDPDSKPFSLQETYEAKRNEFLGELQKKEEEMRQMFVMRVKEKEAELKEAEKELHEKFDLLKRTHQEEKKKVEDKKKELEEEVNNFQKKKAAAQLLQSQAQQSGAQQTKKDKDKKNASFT
UniProt Q9UQR0: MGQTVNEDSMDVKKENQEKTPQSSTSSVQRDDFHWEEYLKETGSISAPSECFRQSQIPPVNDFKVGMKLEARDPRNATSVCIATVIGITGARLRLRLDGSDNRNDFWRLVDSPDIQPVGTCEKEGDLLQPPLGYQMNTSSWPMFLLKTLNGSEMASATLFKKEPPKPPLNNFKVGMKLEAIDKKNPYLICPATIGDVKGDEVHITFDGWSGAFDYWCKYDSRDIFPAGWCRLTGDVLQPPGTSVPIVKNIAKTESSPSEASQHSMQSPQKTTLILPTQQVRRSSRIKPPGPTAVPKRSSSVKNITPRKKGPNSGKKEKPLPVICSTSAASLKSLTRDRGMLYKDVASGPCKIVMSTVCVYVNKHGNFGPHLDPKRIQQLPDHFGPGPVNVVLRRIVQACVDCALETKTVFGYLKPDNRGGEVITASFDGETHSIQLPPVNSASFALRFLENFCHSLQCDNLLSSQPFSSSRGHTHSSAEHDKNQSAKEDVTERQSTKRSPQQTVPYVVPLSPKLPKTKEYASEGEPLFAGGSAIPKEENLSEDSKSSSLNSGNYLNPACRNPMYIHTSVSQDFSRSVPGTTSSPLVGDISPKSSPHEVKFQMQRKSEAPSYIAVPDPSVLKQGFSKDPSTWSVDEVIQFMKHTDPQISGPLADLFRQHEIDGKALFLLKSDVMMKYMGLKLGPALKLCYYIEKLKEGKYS
UniProt Q96T21, 274-293: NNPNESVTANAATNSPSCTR
UniProt Q5TCZ1: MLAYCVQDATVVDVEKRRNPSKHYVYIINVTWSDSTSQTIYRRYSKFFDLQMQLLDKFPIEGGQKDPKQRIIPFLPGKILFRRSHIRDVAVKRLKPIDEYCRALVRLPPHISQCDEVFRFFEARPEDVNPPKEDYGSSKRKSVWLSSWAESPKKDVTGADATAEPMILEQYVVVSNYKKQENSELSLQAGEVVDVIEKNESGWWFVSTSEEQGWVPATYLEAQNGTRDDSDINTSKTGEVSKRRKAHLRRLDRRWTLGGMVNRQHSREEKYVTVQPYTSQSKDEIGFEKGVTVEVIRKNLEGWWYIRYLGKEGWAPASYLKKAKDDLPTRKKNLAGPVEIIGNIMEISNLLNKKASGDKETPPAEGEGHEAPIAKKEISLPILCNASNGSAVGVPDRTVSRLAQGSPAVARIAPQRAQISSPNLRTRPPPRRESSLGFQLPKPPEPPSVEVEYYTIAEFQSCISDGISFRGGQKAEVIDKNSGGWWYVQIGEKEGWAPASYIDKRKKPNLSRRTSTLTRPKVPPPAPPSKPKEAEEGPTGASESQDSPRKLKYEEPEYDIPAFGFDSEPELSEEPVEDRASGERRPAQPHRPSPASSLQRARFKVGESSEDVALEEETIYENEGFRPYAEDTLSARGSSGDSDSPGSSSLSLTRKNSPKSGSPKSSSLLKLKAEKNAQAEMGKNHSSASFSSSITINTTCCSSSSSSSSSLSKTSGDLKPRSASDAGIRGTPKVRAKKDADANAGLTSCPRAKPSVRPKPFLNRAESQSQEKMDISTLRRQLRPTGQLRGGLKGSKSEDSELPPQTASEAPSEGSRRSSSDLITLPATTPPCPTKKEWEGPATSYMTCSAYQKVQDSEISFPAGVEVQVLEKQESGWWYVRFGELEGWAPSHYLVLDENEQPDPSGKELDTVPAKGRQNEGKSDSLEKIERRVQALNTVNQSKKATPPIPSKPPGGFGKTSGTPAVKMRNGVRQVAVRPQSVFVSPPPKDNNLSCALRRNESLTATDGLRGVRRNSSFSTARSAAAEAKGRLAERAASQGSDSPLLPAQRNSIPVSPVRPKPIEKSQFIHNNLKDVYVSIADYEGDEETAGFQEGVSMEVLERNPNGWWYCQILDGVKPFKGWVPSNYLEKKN

compound: ClCC(=O)N[C@H]1CCCc2ccccc12; test: log2 mean competition ratio of IA-DTB cysteine labelling (DMSO/compound) (log2 ratio); higher = stronger cysteine engagement by compound; details: 200 µM; treatment time: 4 h; cell line lysate: HEK293T
Experimental: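 IA-DTB competitive cysteine chemoproteomics in HEK293T RIPA lysate. Lysates were treated with compound 29 or 30 at 50 or 200 µM for 4 h, then IA-DTB (500 µM, 1 h), trypsin-digested, NeutrAvidin-enriched and analysed by diaPASEF. Competition ratio = intensity DMSO / intensity compound (n=4 treated, n=64 DMSO); binding: mean log2 CR ≥ 1 and p ≤ 0.05 plus QC filters. Target is the cysteine site.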

| Target | log2 mean competition ratio |
| --- | --- |
| SHPK C105 (UniProt Q9UHJ6) | 0.168 |
| SF1 C171 | 0.306 |
| SCYL3 C280 (UniProt Q8IZE3) | -0.246 |
| SETD2 C736 (UniProt Q9BYW2) | 0.419 |
| SEPTIN7 C204 (UniProt Q16181) | -0.384 |
| SEPHS1 C71 (UniProt P49903) | -0.0151 |
| SEMA4B C753 (UniProt Q9NPR2) | 0.122 |
| SINHCAF C41 (UniProt Q9NP50) | 0.108 |
| SCPEP1 C152 (UniProt Q9HB40) | -0.496 |
| SHMT2 C241 | -0.00433 |
| SEH1L C30 (UniProt Q96EE3) | 0.126 |
| SGO2 C681 (UniProt Q562F6) | 0.506 |
| SH3BP4 C372 (UniProt Q9P0V3) | -0.162 |
| SGTA C129 (UniProt O43765) | 0.0062 |
| SCRN2 C277 (UniProt Q96FV2) | -0.116 |
| SCLY C22 (UniProt Q96I15) | 0.0724 |
| SECISBP2L C899 (UniProt Q93073) | -0.0518 |
| SEC13 C299 (UniProt P55735) | -0.256 |
| SHPK C132 (UniProt Q9UHJ6) | 0.0679 |
| SEPTIN11 C300 (UniProt Q9NVA2) | -0.113 |
| SERPINB6 C370 | -0.252 |
| SENP6 C291 (UniProt Q9GZR1) | -0.0207 |
| SBNO1 C445 (UniProt A3KN83) | -0.265 |
| SCML2 C350 (UniProt Q9UQR0) | -0.177 |
| SELENOO C219 (UniProt Q9BVL4) | -0.14 |
| SECISBP2 C291 (UniProt Q96T21) | 0.277 |
| SH3PXD2A C995 (UniProt Q5TCZ1) | 0.0451 |

An excerpt from further up, as a working copy:

| Target | log2 mean competition ratio |
| --- | --- |
| SCYL3 C280 (UniProt Q8IZE3) | -0.246 |
| SETD2 C736 (UniProt Q9BYW2) | 0.419 |
